No constants are given. Whether binding was seen depends on the method and setting. Binding seen in cells or lysates may run through a third protein. Some binding calls cover weakened binding; strength is not graded here.
Tests used:
[1] = biological target: Chk2 (human (endogenous in U2OS)) (UniProt O96017); experiment: co-IP; endogenous Chk2 and KAP1 in CCAR2+/+ and CCAR2-/- cells before and after DNA damage; Chk2 antibody clone 44D4/21 used for IP
HA-Chk2 and FLAG-Chk2 = HA-Chk2 and FLAG-Chk2 (UniProt O96017); experiment: co-IP; HA-Chk2 and FLAG-Chk2 co-transfected in CCAR2+/+ and CCAR2-/- cells; immunoprecipitated with anti-HA, immunoblotted with anti-FLAG; before and after DNA damage

Protein sequences, listed by entry. Tags and fused reporters are not part of them.
UniProt O96017: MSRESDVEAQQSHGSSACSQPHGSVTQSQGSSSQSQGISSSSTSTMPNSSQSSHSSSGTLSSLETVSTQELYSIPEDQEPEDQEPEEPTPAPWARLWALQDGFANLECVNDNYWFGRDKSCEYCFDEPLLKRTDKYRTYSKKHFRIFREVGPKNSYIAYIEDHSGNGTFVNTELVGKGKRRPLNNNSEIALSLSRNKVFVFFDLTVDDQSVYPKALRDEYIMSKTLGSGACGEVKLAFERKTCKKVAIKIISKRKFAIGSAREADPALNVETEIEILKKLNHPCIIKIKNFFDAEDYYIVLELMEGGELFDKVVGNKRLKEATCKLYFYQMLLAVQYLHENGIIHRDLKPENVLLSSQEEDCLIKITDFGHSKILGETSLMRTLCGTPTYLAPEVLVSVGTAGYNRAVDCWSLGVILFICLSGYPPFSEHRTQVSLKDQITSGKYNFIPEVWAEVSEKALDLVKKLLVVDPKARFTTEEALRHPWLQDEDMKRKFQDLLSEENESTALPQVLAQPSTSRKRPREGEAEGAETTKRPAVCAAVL
UniProt Q13263: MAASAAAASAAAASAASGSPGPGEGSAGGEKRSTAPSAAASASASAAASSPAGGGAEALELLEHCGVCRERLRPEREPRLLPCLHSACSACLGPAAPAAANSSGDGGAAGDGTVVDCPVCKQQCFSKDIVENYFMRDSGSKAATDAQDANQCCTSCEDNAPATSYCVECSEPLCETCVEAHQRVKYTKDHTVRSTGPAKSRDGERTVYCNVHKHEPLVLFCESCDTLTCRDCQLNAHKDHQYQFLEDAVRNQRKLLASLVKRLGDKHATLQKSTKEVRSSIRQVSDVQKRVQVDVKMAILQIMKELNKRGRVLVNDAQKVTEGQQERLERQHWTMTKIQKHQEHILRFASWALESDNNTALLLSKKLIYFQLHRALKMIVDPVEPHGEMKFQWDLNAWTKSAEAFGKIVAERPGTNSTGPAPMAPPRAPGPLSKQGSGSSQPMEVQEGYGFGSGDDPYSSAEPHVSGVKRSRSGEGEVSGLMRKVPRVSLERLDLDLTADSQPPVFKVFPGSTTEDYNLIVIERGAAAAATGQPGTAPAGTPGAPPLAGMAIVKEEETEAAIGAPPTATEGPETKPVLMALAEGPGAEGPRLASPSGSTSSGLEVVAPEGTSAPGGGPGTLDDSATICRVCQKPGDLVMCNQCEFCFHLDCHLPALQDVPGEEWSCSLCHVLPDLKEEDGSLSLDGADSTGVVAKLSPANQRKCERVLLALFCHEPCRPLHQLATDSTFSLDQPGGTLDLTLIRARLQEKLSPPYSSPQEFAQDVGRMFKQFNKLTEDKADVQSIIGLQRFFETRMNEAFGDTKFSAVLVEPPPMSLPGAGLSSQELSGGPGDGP

KAP1 (KRAB domain-associated protein 1) (from UniProt Q13263 1-835)
binding [1]: binds

HA-Chk2 and FLAG-Chk2 (from UniProt O96017 1-543) (enzyme)
binding (HA-Chk2 and FLAG-Chk2): binds

Reference: paper PMC4627348
